Measurements published in patent publication US8039514B2, “Sulfonamide compounds and use thereof” (Asahi Kasei Pharma Corporation, priority 2008, dated 2011).
Some of these results come from one statement about several compounds together.

Molecular target: T1, human calcium-sensing receptor (CaSR) (Homo sapiens, UniProt P41180)
T1 construct: expressed in transfected cells
T1 sequence (P41180 20-1078): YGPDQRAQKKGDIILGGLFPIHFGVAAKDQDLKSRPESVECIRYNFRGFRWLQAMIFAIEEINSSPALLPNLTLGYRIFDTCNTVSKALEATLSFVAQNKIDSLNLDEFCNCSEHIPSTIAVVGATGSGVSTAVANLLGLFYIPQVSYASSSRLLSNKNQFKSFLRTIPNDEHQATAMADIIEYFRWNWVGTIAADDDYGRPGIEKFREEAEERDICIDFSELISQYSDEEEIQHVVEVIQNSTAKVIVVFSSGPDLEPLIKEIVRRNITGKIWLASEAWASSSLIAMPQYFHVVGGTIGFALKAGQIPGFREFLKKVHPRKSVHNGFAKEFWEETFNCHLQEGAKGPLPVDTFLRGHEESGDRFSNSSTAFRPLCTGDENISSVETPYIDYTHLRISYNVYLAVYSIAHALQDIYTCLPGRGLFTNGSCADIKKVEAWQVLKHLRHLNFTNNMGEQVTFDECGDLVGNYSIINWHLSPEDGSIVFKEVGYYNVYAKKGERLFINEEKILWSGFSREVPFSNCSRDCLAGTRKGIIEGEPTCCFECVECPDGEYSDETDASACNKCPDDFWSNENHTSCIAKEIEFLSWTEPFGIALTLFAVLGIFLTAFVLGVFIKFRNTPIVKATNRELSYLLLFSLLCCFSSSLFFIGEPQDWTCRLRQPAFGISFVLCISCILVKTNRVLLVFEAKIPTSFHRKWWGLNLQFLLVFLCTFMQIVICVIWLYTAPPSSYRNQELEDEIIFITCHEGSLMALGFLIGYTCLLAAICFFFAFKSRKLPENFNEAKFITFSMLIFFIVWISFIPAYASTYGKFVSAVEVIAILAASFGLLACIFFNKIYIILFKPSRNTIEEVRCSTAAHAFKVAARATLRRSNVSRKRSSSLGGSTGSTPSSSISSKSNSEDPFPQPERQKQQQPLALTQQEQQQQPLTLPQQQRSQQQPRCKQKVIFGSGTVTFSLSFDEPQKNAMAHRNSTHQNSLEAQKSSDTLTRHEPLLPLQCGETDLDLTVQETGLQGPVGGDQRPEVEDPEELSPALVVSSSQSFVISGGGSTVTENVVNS
Test: intracellular Ca assay, CaSR antagonist activity in HEK293/hCaSR cells
Assay type: cell-based
Details: Fura2-AM, inhibition of response to calcium chloride ligand solution
Procedure: HEK293 cells stably expressing human calcium-sensing receptor (CaSR) (termed HEK293/hCaSR cells) were used. HEK293/hCaSR cells were cultured in a culture medium [DMEM medium containing 0.5 mg/mL Geneticin, 50 Unit/mL penicillin, 50 μg/mL streptomycin and 10% fetal bovine serum (FBS), all manufactured by Invitrogen] to semiconfluent in an incubator at 37° C. under 5% carbon dioxide atmosphere.
Cultured cells were washed with phosphate buffered saline (PBS(−), manufactured by Dainippon Sumitomo Pharmaceutical Company) which had been prewarmed to 37° C., added with PBS(−) containing 10 mM ethylenediamine tetraacetic acid (EDTA), and then incubated in an incubator at 37° C. for 10 minutes. After adding the culture medium to separate the cells, cell suspension was transferred to a centrifuge tube. Cells were collected by centrifuge at 1,500 rpm for 3 minutes, and resuspended in Ca assay buffer [20 mM HEPES buffer (pH 7.4), 115 mM sodium chloride, 5.4 mM potassium chloride, 0.8 mM magnesium chloride, 0.8 mM calcium chloride, 13.8 mM D(+)-glucose (all manufactured by Wako Pure Chemicals) and 0.1% bovine serum albumin (manufactured by SIGMA)] containing 0.2% Pluronic F-127 (manufactured by Molecular Probes) and […] Fura2-AM (manufactured by DOJINDO LABORATORIES) to obtain a cell suspension of 5×10^6 cells/mL. After incubating at 37° C. for 30 minutes, the cells were washed twice with the Ca assay buffer and suspended in the same buffer to obtain a cell suspension of 1×10^6 cells/60 μL. 60 μL of the cell suspension was aliquoted to each well of a 96 well UV microplate (manufactured by Corning Co.) to give a cell plate.
The test compound was diluted with the Ca assay buffer to five times the final concentration and then 80 μL of the diluted compound was applied to each well of a 96 well round bottomed microplate (manufactured by Corning Co.) to give a sample plate. 80 μL of the Ca assay buffer containing 7.5 mM calcium chloride (i.e., ligand solution) was applied to each well of a 96 well round bottomed microplate to give a ligand plate. Then, thus prepared sample plate, ligand plate, and the cell plate were placed in Functional Drug Screening System (FDSS) 4000 (manufactured by Hamamatsu Photonics K.K.) which had been preswitched on and prewarmed to 37° C. Measurements were then carried out as follows. After incubating the cell plate for 180 seconds, fluorescence intensity was measured every two seconds (excitation wavelength; 340 nm and 380 nm, measurement wavelength; 500 nm). After the measurement for 40 seconds, 20 μL of the test compound solution from the sample plate was added to the cell plate, followed by continuous measurement for 160 seconds. Then, 20 μL of the ligand solution from the ligand plate was added to the cell plate, followed by continuous measurement for 100 seconds.
Amount of change in intracellular Ca concentration is indicated as a peak height of the ratio of the fluorescence intensity with excitation of 340 nm and 380 nm (i.e., fluorescence intensity with excitation at 340 nm/fluorescence intensity with excitation at 380 nm) that is obtained from the difference between the maximum ratio after adding the ligand solution and the ratio before adding the ligand solution. Further, when the peak height obtained from the Ca assay buffer containing no test compound has inhibition ratio of 0% while the peak height obtained from the Ca assay buffer containing no calcium chloride as a ligand solution has inhibition ratio of 100%, inhibition ratio for each test compound (i.e., CaSR antagonist activity) was calculated.

| SMILES | IC50 values according to the intracellular Ca assay (CaSR antagonist activity) |
| --- | --- |
| CN(C[C@H](O)CNC(C)(C)CC1Cc2ccccc2C1)S(=O)(=O)c1ccc(-c2cccc(C(=O)O)c2)cc1 [Exp. 3-120, (R)-4′-(N-(3-(1-(2,3-dihydro-1H-inden-2-yl)-2-methylpropan-2-ylamino)-2-hydroxypropyl)-N-methylsulfamoyl)biphenyl-3-carboxylic acid] | 1.0 to 0.3 μM |
| CN(C[C@H](O)CNC(C)(C)CC1Cc2ccccc2C1)S(=O)(=O)c1cncc(-c2cccc(C(=O)O)c2)c1 [Exp. 3-121, (R)-3-(5-(N-(3-(1-(2,3-dihydro-1H-inden-2-yl)-2-methylpropan-2-ylamino)-2-hydroxypropyl)-N-methylsulfamoyl)pyridin-3-yl)benzoic acid] | 3.0 to 1.0 μM |
| CN(C[C@H](O)CNC(C)(C)CC1Cc2ccccc2C1)S(=O)(=O)c1ccc(-c2cccc(C(=O)O)c2)s1 [Exp. 3-122, (R)-3-(5-(N-(3-(1-(2,3-dihydro-1H-inden-2-yl)-2-methylpropan-2-ylamino)-2-hydroxypropyl)-N-methylsulfamoyl)thiophen-2-yl)benzoic acid] | 1.0 to 0.3 μM |
| Cc1cc(S(=O)(=O)N(C)C[C@H](O)CNC(C)(C)CC2Cc3ccccc3C2)ccc1-c1cccc(C(=O)O)c1 [Exp. 3-123, (R)-4′-(N-(3-(1-(2,3-dihydro-1H-inden-2-yl)-2-methylpropan-2-ylamino)-2-hydroxypropyl)-N-methylsulfamoyl)-2′-methylbiphenyl-3-carboxylic acid] | 1.0 to 0.3 μM |
| CN(C[C@H](O)CNC(C)(C)Cc1ccc(Cl)c(F)c1)S(=O)(=O)c1cc(-c2cccc(C(=O)O)c2)cc(C(F)(F)F)c1 [Exp. 3-125, (R)-3′-(N-(3-(1-(4-chloro-3-fluorophenyl)-2-methylpropan-2-ylamino)-2-hydroxypropyl)-N-methylsulfamoyl)-5′-(trifluoromethyl)biphenyl-3-carboxylic acid] | 3.0 to 1.0 μM |
| COc1ccc(-c2cc(F)cc(C(=O)O)c2)cc1S(=O)(=O)N(C)C[C@H](O)CNC(C)(C)CC1Cc2ccccc2C1 [Exp. 3-127, (R)-3′-(N-(3-(1-(2,3-dihydro-1H-inden-2-yl)-2-methylpropan-2-ylamino)-2-hydroxypropyl)-N-methylsulfamoyl)-5-fluoro-4′-methoxybiphenyl-3-carboxylic acid] | 1.0 to 0.3 μM |
| CN(C[C@H](O)CNC(C)(C)CC1Cc2ccccc2C1)S(=O)(=O)c1cccc(-c2ccc(C=CC(=O)O)c(F)c2)c1 [Exp. 3-129, (R)-3-(3′-(N-(3-(1-(2,3-dihydro-1H-inden-2-yl)-2-methylpropan-2-ylamino)-2-hydroxypropyl)-N-methylsulfamoyl)-3-fluorobiphenyl-4-yl)acrylic acid] | 1.0 to 0.3 μM |
| COc1ccc(-c2ccc(CC(=O)O)cc2)cc1S(=O)(=O)N(C)C[C@H](O)CNC(C)(C)CC1Cc2ccccc2C1 [Exp. 3-131, (R)-2-(3′-(N-(3-(1-(2,3-dihydro-1H-inden-2-yl)-2-methylpropan-2-ylamino)-2-hydroxypropyl)-N-methylsulfamoyl)-4′-methoxybiphenyl-4-yl)acetic acid] | 3.0 to 1.0 μM |
| CN(C[C@H](O)CNC(C)(C)CC1Cc2ccccc2C1)S(=O)(=O)c1ccc(-c2cccc(CC(=O)O)c2)s1 [Exp. 3-132, (R)-2-(3-(5-(N-(3-(1-(2,3-dihydro-1H-inden-2-yl)-2-methylpropan-2-ylamino)-2-hydroxypropyl)-N-methylsulfamoyl)thiophen-2-yl)phenyl)acetic acid] | 1.0 to 0.3 μM |
| Cc1cc(S(=O)(=O)N(C)C[C@H](O)CNC(C)(C)CC2Cc3ccccc3C2)ccc1-c1ccc(CC(=O)O)cc1 [Exp. 3-135, (R)-2-(4′-(N-(3-(1-(2,3-dihydro-1H-inden-2-yl)-2-methylpropan-2-ylamino)-2-hydroxypropyl)-N-methylsulfamoyl)-2′-methylbiphenyl-4-yl)acetic acid] | 1.0 to 0.3 μM |
| CN(C[C@H](O)CNC(C)(C)Cc1ccc(Cl)c(F)c1)S(=O)(=O)c1cc(-c2ccc(CC(=O)O)cc2)cc(C(F)(F)F)c1 [Exp. 3-136, (R)-2-(3′-(N-(3-(1-(4-chloro-3-fluorophenyl)-2-methylpropan-2-ylamino)-2-hydroxypropyl)-N-methylsulfamoyl)-5′-(trifluoromethyl)biphenyl-4-yl)acetic acid] | 1.0 to 0.3 μM |
| CN(C[C@H](O)CNC(C)(C)CC1Cc2ccccc2C1)S(=O)(=O)c1ccc(-c2ccc(CC(=O)O)cc2)cc1C(F)(F)F [Exp. 3-137, (R)-2-(4′-(N-(3-(1-(2,3-dihydro-1H-inden-2-yl)-2-methylpropan-2-ylamino)-2-hydroxypropyl)-N-methylsulfamoyl)-3′-(trifluoromethyl)biphenyl-4-yl)acetic acid] | 3.0 to 1.0 μM |
| CN(C[C@H](O)CNC(C)(C)CC1Cc2ccccc2C1)S(=O)(=O)c1cncc(-c2ccc(CC(=O)O)cc2)c1 [Exp. 3-138, (R)-2-(4-(5-(N-(3-(1-(2,3-dihydro-1H-inden-2-yl)-2-methylpropan-2-ylamino)-2-hydroxypropyl)-N-methylsulfamoyl)pyridin-3-yl)phenyl)acetic acid] | 1.0 to 0.3 μM |
| CN(C[C@H](O)CNC(C)(C)CC1Cc2ccccc2C1)S(=O)(=O)c1ccc(-c2ccc(CC(=O)O)cc2)s1 [Exp. 3-139, (R)-2-(4-(5-(N-(3-(1-(2,3-dihydro-1H-inden-2-yl)-2-methylpropan-2-ylamino)-2-hydroxypropyl)-N-methylsulfamoyl)thiophen-2-yl)phenyl)acetic acid] | 1.0 to 0.3 μM |
| COc1ccc(-c2ccc(C(=O)O)cc2)cc1S(=O)(=O)N(C)C[C@H](O)CNC(C)(C)CC1Cc2ccccc2C1 [Exp. 3-151, (R)-3′-(N-(3-(1-(2,3-dihydro-1H-inden-2-yl)-2-methylpropan-2-ylamino)-2-hydroxypropyl)-N-methylsulfamoyl)-4′-methoxybiphenyl-4-carboxylic acid] | 3.0 to 1.0 μM |
